Data as given in PubChem BioAssay AID1671195 (Yale University, 2021)
Assay: 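Regulators of LDL receptor activity judged by labelled LDL uptake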 (primary screen). Cells: human Huh7 hepatoma cells. Reagents: siRNA pool against human genes, 18 nM. Time to read-out: about 2 to 2.5 days of knockdown, then 8 h LDL uptake. Treatment: DiI-labelled LDL at 30 µg/ml for 8 h, in lipoprotein-deficient serum medium. Detection: 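Per-cell DiI-LDL intensity by automated imaging; well means scaled to the plate median and given as a robust z-score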. Direction: robust z-score: higher = more LDL uptake after knockdown. Hit rule: 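Active when two or more replicates show a robust z-score above 2 or below -2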.
In all, the deposit lists about 22,000 reagents; this is a part drawn at random. Over the whole deposit, about 1,510 (6.9%) were called active. 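Active includes knockdowns raising or lowering LDL uptake; positive z-scores mean more uptake, negative mean less.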 No sequences are given here.

target | robust z-score, replicate 1 | robust z-score, replicate 2 | robust z-score, replicate 3 | Call
NCAN (neurocan) | 0.737 | 1.24 | 1.18 | inactive
IFNGR2 (interferon gamma receptor 2) | -1.15 | 1.52 | -0.188 | inactive
FBXL20 (F-box and leucine rich repeat protein 20) | -0.87 | -0.051 | -0.626 | inactive
GRPEL2 (GrpE like 2, mitochondrial) | 0.305 | 0.248 | 0.799 | inactive
TAFA5-AS1 (TAFA5 antisense RNA 1) | 2.91 | 2.83 | 1.91 | active
OR4D5 (olfactory receptor family 4 subfamily D member 5) | 1.48 | 1.71 | 1.7 | inactive
PKP3 (plakophilin 3) | 1.96 | 1.47 | 2.66 | inactive
AP1G1 (adaptor related protein complex 1 subunit gamma 1) | 0.299 | -0.277 | 0.664 | inactive
CLTA (clathrin light chain A) | -0.17 | -0.533 | -1.28 | inactive
CMA1 (chymase 1) | -1.22 | -0.858 | -0.872 | inactive
TECR (trans-2,3-enoyl-CoA reductase) | 0.748 | 1.73 | 1.31 | inactive
STAP2 (signal transducing adaptor family member 2) | 0.736 | -0.397 | 0.875 | inactive
L3MBTL2 (L3MBTL histone methyl-lysine binding protein 2) | -0.357 | -0.313 | -0.575 | inactive
RAB37 (RAB37, member RAS oncogene family) | -0.277 | -0.759 | -0.957 | inactive
UBQLN3 (ubiquilin 3) | 0.596 | -1 | 0.918 | inactive
LINC00710 (long independently transcribed non-coding RNA 710) | 0.421 | 0.48 | 0.551 | inactive
PTGR3 (prostaglandin reductase 3) | -1.81 | -1.58 | -1.84 | inactive
CHMP1B (charged multivesicular body protein 1B) | 0.275 | -0.112 | -0.466 | inactive
NFASC (neurofascin) | -0.281 | 0.297 | 0.876 | inactive
DSCC1 | 0.357 | -0.358 | 0.426 | inactive
FUBP1 (far upstream element binding protein 1) | -1.22 | -0.815 | -1.04 | inactive
ZNF684 (zinc finger protein 684) | 2.24 | 0.92 | 1.52 | inactive
AHRR (aryl hydrocarbon receptor repressor) | -0.619 | -0.449 | -0.23 | inactive
SPOPL (speckle type BTB/POZ protein like) | 2.85 | 2.38 | 2.37 | active
THRSP (thyroid hormone responsive) | -0.346 | 0.149 | -0.0166 | inactive
SCTR (secretin receptor) | 0.869 | 0.82 | 1.28 | inactive
RPL23AP12 (ribosomal protein L23a pseudogene 12) | 0.0295 | 0.236 | 0.825 | inactive
TLE1 (TLE family member 1, transcriptional corepressor) | -0.16 | -0.842 | -0.791 | inactive
CHGA (chromogranin A) | 0.901 | 1.05 | 1.8 | inactive
NHERF4 (NHERF family PDZ scaffold protein 4) | -1.24 | -1.16 | -0.844 | inactive
CRY1 (cryptochrome circadian regulator 1) | 0.264 | 1.92 | 0.849 | inactive
TBC1D10C (TBC1 domain family member 10C) | -0.0184 | 0.193 | -0.154 | inactive
KMO (kynurenine 3-monooxygenase) | -0.501 | -0.683 | -0.541 | inactive
MYCBPAP (MYCBP associated protein) | 0.105 | 1.19 | 1.01 | inactive
BRINP2 (BMP/retinoic acid inducible neural specific 2) | -0.57 | -1.3 | -0.625 | inactive
ASF1B (anti-silencing function 1B histone chaperone) | 1.51 | 2.29 | 1.88 | inactive
SLC9A1 | -2.18 | -2.22 | -2.67 | active
LINC02003 (long independently transcribed non-coding RNA 2003) | -0.185 | -0.564 | -1.34 | inactive
SLC4A3 | 0.0907 | -0.104 | 0.023 | inactive
MCUR1 (mitochondrial calcium uniporter regulator 1) | 2.75 | 2.14 | 2.37 | active
EFTUD2 (elongation factor Tu GTP binding domain containing 2) | -0.978 | -1.08 | -0.941 | inactive
MIR2052HG (MIR2052 host gene) | -0.447 | -0.378 | -0.655 | inactive
C17orf100 (chromosome 17 open reading frame 100) | 1.89 | 1.8 | 2.49 | inactive
RABGAP1 (RAB GTPase activating protein 1) | 0.666 | 0.599 | 2.42 | inactive
KIF1B (kinesin family member 1B) | -1.93 | -1.57 | -2.03 | active
TFDP3 (transcription factor Dp family member 3) | 0.415 | 0.267 | 0.508 | inactive
ZBTB4 (zinc finger and BTB domain containing 4) | 0.425 | -0.751 | -1.26 | inactive
BBLN (bublin coiled coil protein) | -0.522 | -0.00992 | -0.34 | inactive
PCGF6 (polycomb group ring finger 6) | 2.21 | 1.35 | 2.86 | active
FAM221A (family with sequence similarity 221 member A) | 1.09 | 1.62 | 1.66 | inactive
HSDL1 (hydroxysteroid dehydrogenase like 1) | 0.744 | 0.573 | 0.68 | inactive
ART5 (ADP-ribosyltransferase 5) | 1.83 | 0.188 | 0.823 | inactive
OR5I1 (olfactory receptor family 5 subfamily I member 1) | -0.998 | -1.3 | -1.18 | inactive
RASSF7 (Ras association domain family member 7) | -0.908 | -0.92 | -0.483 | inactive
PRX (periaxin) | 0.366 | 0.436 | -0.0296 | inactive
CDC26 (cell division cycle 26) | 0.457 | 0.211 | 0.142 | inactive
MPL (MPL proto-oncogene, thrombopoietin receptor) | -0.689 | -0.0452 | -0.627 | inactive
CLRN3 (clarin 3) | -1.22 | -1.05 | -1.52 | inactive
LOC400662 (retired record) | 0.436 | -0.0972 | -0.013 | inactive
DCK (deoxycytidine kinase) | 1.25 | 0.634 | 0.113 | inactive
VMA21 (vacuolar ATPase assembly factor VMA21) | 1.41 | 1.26 | 1.74 | inactive
MEIS1 (Meis homeobox 1) | 1.07 | 0.236 | 1.31 | inactive
PRG4 (proteoglycan 4) | 1.73 | -0.101 | 0.753 | inactive
LOC441832 (retired record) | -0.301 | -0.406 | -0.556 | inactive
LOC440859 (retired record) | -0.836 | -0.6 | -0.878 | inactive
FXYD3 (FXYD domain containing ion transport regulator 3) | -1.06 | -0.0615 | -1.68 | inactive
STAG3L1 (STAG3 cohesin complex component like 1 (pseudogene)) | -0.905 | -0.99 | -0.424 | inactive
FUCA2 (alpha-L-fucosidase 2) | 1.17 | 0.321 | 0.49 | inactive
UNC5B (unc-5 netrin receptor B) | 1.11 | 0.825 | 1.12 | inactive
LINC01565 (long independently transcribed non-coding RNA 1565) | -1.36 | -2.24 | -0.941 | inactive
FAM226A (family with sequence similarity 226 member A) | 2.75 | 2.4 | 2.4 | active
BCAR1 (BCAR1 scaffold protein, Cas family member) | -2.52 | -2.12 | -1.85 | active
TIMM44 (translocase of inner mitochondrial membrane 44) | -0.308 | 0.38 | 0.197 | inactive
GSS (glutathione synthetase) | 0.353 | 1.31 | 0.96 | inactive
USP27X (ubiquitin specific peptidase 27 X-linked) | -1.33 | -1.99 | -1.32 | inactive
TMEM39B (transmembrane protein 39B) | -0.997 | 0.701 | -0.531 | inactive
SLC22A24 | 0.99 | 0.504 | 0.149 | inactive
EFCAB13 (EF-hand calcium binding domain 13) | 1.64 | 1.12 | 1.06 | inactive
LOC392177 (retired record) | -0.367 | -0.497 | -0.748 | inactive
ARMH1 (armadillo like helical domain containing 1) | -0.0538 | 0.165 | -0.0584 | inactive
PTGES (prostaglandin E synthase) | -0.636 | -0.923 | -1.59 | inactive
ZNF329 (zinc finger protein 329) | 2.12 | 1.66 | 2.27 | active
PUS10 (pseudouridine synthase 10) | 0.642 | 0.0274 | 0.0685 | inactive
LOC442329 (retired record) | -2.56 | -1.99 | -1.83 | active
NSMF | -1.15 | -0.559 | -0.706 | inactive
SNRNP25 (small nuclear ribonucleoprotein U11/U12 subunit 25) | 2.28 | 2.53 | 1.65 | active
TOP3B (DNA topoisomerase III beta) | -0.64 | 0.722 | 0.174 | inactive

14 entries from above, reduced to “robust z-score, replicate 1”:
BBLN (bublin coiled coil protein)	-0.522
PCGF6 (polycomb group ring finger 6)	2.21
FAM221A (family with sequence similarity 221 member A)	1.09
HSDL1 (hydroxysteroid dehydrogenase like 1)	0.744
ART5 (ADP-ribosyltransferase 5)	1.83
OR5I1 (olfactory receptor family 5 subfamily I member 1)	-0.998
RASSF7 (Ras association domain family member 7)	-0.908
PRX (periaxin)	0.366
CDC26 (cell division cycle 26)	0.457
MPL (MPL proto-oncogene, thrombopoietin receptor)	-0.689
CLRN3 (clarin 3)	-1.22
LOC400662 (retired record)	0.436
DCK (deoxycytidine kinase)	1.25
VMA21 (vacuolar ATPase assembly factor VMA21)	1.41
